{"sequences": {"note": "Protein sequences, listed by entry. Tags and fused reporters are not part of them. Lines headed by an entry give the natural chain unless they say otherwise; changes in a name come on top.", "UniProt Q8NCN2": "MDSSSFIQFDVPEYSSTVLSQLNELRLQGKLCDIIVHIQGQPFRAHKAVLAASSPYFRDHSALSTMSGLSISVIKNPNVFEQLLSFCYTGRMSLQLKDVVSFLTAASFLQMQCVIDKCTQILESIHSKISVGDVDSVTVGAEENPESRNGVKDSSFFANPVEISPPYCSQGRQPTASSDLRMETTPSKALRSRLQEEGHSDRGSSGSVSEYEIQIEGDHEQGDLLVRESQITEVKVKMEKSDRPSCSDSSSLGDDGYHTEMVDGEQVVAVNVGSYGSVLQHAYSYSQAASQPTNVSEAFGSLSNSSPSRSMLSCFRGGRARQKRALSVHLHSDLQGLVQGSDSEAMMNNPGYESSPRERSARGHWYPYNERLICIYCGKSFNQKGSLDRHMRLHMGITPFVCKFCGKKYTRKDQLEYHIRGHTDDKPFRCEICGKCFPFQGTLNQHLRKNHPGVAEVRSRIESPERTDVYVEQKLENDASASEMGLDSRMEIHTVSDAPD", "UniProt Q8NCY6": "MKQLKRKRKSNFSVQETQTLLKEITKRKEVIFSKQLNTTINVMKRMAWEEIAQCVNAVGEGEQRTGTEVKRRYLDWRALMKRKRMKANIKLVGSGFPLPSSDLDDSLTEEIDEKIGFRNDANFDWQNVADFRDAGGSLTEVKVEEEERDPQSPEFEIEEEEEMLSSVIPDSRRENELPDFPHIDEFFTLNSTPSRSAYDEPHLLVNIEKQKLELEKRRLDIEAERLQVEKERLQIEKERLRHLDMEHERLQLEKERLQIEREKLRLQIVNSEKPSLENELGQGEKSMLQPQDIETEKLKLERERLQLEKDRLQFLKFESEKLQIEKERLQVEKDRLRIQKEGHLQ", "UniProt Q8N5F7": "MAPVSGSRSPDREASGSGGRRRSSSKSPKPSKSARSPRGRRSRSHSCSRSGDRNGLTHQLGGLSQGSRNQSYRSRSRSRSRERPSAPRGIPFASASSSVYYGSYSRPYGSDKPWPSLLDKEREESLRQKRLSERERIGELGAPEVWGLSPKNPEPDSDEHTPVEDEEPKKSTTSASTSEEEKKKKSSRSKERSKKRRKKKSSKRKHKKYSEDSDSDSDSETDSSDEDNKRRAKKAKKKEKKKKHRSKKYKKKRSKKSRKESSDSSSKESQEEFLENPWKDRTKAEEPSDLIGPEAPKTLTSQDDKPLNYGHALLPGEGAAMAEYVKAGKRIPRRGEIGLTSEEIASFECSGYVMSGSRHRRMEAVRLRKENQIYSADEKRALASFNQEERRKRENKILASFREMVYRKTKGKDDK", "UniProt Q8NAG6": "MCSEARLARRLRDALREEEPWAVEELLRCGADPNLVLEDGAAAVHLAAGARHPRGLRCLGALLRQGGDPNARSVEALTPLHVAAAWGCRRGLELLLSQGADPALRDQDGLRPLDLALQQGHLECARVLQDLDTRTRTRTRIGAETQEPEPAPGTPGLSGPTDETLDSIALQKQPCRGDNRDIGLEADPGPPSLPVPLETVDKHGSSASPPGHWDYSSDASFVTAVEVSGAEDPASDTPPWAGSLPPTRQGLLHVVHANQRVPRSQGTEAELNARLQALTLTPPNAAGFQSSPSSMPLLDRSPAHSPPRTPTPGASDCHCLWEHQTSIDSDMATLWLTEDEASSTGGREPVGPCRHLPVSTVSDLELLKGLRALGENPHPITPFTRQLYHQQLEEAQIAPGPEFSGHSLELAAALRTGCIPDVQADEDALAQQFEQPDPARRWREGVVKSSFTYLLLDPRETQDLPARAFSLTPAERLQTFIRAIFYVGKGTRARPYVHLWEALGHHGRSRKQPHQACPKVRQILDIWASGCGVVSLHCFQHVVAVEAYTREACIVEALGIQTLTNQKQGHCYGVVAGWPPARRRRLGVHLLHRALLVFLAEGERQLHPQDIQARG", "UniProt Q8NHQ9": "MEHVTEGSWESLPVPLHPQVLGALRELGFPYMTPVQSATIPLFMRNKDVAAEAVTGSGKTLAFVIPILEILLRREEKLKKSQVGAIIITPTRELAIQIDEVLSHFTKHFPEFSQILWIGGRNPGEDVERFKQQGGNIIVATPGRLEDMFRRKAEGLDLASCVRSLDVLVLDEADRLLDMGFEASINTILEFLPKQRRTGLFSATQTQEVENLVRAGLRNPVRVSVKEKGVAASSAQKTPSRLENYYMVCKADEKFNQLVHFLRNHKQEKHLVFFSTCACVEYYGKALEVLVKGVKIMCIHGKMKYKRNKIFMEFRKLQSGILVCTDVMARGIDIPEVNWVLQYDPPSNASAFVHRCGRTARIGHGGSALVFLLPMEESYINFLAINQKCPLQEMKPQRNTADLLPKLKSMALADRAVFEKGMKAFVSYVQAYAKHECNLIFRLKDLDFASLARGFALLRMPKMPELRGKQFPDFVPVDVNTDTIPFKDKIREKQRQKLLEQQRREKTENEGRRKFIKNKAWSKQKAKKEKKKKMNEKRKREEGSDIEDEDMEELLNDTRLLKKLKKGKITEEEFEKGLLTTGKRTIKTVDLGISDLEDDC", "UniProt Q8NEH6": "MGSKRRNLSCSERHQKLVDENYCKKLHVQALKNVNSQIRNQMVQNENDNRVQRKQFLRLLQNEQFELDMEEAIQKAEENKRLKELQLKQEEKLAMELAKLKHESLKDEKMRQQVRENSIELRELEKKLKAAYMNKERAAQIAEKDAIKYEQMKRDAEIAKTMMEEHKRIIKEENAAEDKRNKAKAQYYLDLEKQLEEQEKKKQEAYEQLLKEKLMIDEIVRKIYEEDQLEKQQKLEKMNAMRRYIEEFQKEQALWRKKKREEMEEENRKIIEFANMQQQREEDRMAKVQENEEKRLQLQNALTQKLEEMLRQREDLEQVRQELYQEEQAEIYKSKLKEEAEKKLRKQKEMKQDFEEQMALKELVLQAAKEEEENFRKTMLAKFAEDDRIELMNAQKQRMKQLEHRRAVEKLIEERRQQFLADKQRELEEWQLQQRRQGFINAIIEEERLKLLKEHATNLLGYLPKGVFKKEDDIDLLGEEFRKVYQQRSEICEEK", "UniProt Q8NDA8": "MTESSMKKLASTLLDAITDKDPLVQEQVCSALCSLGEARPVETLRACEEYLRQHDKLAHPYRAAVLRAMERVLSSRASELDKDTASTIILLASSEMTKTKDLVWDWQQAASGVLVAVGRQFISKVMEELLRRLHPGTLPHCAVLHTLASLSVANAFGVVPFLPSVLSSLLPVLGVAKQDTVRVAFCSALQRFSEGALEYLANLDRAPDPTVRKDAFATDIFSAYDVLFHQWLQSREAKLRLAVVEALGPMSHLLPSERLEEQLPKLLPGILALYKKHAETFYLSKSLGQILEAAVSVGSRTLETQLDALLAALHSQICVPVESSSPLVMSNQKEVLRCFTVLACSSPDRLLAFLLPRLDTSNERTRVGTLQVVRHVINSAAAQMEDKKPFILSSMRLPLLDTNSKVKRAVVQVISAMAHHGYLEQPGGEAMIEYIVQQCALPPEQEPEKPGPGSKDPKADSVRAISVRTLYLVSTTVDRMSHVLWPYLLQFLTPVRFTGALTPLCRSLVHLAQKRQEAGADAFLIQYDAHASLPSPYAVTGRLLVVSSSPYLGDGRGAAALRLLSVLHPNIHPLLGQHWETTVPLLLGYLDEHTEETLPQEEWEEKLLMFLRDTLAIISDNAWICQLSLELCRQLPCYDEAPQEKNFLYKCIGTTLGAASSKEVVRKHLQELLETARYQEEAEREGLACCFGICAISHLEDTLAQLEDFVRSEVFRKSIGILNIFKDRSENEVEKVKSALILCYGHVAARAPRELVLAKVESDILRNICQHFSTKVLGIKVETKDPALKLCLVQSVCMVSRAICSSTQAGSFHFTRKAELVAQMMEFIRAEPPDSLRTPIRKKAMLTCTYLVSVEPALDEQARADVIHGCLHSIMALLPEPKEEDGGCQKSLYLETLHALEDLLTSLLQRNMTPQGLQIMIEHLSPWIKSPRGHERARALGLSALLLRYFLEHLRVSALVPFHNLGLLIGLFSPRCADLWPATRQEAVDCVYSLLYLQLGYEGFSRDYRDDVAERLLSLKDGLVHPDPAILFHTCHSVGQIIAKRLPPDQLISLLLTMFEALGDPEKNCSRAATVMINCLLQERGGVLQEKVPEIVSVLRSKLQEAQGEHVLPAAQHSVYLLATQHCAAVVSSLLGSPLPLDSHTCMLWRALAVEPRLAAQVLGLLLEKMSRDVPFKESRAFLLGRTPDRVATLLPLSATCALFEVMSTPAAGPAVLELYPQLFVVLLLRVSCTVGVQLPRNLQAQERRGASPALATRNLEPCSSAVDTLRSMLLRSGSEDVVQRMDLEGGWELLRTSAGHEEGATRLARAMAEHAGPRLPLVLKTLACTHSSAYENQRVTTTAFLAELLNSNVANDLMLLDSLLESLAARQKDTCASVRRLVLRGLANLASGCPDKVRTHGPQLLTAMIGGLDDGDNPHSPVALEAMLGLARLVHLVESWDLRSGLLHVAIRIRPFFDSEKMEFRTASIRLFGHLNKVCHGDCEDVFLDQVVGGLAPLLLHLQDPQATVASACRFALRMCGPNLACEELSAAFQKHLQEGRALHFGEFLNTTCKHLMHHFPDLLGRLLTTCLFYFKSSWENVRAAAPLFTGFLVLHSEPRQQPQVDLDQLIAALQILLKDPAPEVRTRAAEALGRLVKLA", "UniProt Q8NA54": "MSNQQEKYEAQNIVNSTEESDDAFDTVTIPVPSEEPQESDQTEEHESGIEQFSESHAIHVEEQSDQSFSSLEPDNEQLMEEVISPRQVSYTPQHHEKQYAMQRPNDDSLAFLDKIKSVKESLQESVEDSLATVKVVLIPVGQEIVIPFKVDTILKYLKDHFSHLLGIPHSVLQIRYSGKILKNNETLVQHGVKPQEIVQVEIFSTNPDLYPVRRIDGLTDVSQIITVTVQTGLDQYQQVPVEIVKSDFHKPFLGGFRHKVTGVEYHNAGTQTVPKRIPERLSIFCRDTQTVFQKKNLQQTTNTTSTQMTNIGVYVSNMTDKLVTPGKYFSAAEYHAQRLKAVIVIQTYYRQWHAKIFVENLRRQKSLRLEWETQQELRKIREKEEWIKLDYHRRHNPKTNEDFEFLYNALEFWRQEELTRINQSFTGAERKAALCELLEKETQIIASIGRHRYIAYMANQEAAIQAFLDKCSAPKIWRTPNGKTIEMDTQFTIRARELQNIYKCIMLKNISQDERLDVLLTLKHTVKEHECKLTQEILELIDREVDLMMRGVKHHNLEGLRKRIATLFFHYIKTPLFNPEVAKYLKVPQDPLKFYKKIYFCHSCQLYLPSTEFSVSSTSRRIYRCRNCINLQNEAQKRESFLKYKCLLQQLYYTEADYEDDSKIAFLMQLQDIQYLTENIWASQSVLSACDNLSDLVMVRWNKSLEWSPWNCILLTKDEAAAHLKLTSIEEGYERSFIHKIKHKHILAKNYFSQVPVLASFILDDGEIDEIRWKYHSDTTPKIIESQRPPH", "UniProt Q8NEJ9": "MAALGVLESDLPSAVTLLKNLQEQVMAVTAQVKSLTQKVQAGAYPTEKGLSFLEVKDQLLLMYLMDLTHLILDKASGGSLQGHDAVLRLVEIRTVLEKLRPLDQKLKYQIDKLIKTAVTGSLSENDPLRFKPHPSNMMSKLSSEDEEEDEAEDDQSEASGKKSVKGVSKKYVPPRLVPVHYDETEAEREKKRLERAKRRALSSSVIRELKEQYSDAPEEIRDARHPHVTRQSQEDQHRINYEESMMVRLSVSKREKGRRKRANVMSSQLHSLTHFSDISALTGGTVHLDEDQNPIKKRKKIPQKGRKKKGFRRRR", "UniProt Q8NEY8": "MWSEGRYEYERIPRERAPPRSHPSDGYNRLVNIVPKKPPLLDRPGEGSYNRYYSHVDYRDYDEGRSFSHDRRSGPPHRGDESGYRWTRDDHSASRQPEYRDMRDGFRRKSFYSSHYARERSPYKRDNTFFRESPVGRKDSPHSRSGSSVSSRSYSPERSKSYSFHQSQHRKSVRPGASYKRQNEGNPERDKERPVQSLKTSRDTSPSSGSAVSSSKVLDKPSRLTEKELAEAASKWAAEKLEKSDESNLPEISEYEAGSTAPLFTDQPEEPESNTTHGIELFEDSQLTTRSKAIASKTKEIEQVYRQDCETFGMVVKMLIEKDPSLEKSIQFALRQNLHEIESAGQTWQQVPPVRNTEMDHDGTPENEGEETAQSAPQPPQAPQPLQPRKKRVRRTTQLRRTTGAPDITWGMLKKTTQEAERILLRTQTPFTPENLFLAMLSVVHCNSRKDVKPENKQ", "UniProt Q8N5P1": "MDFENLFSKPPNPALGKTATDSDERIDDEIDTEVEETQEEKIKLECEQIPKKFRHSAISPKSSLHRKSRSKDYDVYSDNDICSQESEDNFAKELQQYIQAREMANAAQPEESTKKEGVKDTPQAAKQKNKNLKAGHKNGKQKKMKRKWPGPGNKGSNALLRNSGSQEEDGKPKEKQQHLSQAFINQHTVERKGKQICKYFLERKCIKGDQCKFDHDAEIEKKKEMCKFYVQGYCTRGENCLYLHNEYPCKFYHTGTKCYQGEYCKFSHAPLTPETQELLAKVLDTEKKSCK"}, "source": "the supplement of paper PMC12819154", "about": "“High-throughput peptide-centric local stability assay extends protein–ligand identification to membrane proteins, tissues and bacteria” (Nature Structural & Molecular Biology, 2025)", "note": "Some of the results follow. Most entries show no effect beyond the scatter of the controls."}
{"compound": "Cc1nc(Nc2ncc(C(=O)Nc3c(C)cccc3Cl)s2)cc(N2CCN(CCO)CC2)n1 [dasatinib]", "assay": "log2 fold change of tryptic peptide abundance, ligand vs vehicle (limited proteolysis) (log2 ratio); higher = more trypsin-susceptible (destabilized)", "details": "ligand concentration: 5 uM; sample: K562 cleared lysate"}
{"target": "ZBTB34 (peptide sequence: QPTASSDLR, peptide start residue: 173) (UniProt Q8NCN2)", "log2 fold change": 0.188}
{"target": "UniProt Q8NCY6 (peptide sequence: SAYDEPHLLVNIEK, peptide start residue: 196)", "log2 fold change": -0.154}
{"target": "RNF214 (peptide sequence: EVWEMELDR, peptide start residue: 321) (UniProt Q8ND24)", "log2 fold change": 0.198}
{"target": "ARID1B (peptide sequence: IERGEEPPPEVFSTGDTK, peptide start residue: 1226) (UniProt Q8NFD5)", "log2 fold change": 0.432}
{"target": "NKAP (peptide sequence: TKAEEPSDLIGPEAPK, peptide start residue: 282) (UniProt Q8N5F7)", "log2 fold change": -0.0654}
{"target": "USP32 (peptide sequence: IGFLSYEEALR, peptide start residue: 8) (UniProt Q8NFA0)", "log2 fold change": -0.416}
{"target": "UBR7 (peptide sequence: NIDGIGDQEVIKPENGEHQDSTLK, peptide start residue: 214) (UniProt Q8N806)", "log2 fold change": -0.557}
{"target": "ANKLE1 (peptide sequence: SQGTEAELNAR, peptide start residue: 264) (UniProt Q8NAG6)", "log2 fold change": 0.185}
{"target": "DDX55 (peptide sequence: KLQSGILVCTDVMAR, peptide start residue: 316) (UniProt Q8NHQ9)", "log2 fold change": -0.233}
{"target": "UniProt Q8NEH6 (peptide sequence: QLEEQEK, peptide start residue: 194)", "log2 fold change": -0.174}
{"target": "SHCBP1 (peptide sequence: LRLHYDILEDR, peptide start residue: 228) (UniProt Q8NEM2)", "log2 fold change": -0.521}
{"target": "DOCK8 (peptide sequence: KNQGSPEICGFKK, peptide start residue: 135) (UniProt Q8NF50)", "log2 fold change": 0.546}
{"target": "UniProt Q8N6I1 (peptide sequence: HGNGGLAALPYLR, peptide start residue: 129)", "log2 fold change": -0.164}
{"target": "UniProt Q8NG31 (peptide sequence: QNTAFQDLSINSADKIHITR, peptide start residue: 394)", "log2 fold change": 0.149}
{"target": "UniProt Q8NDA8 (peptide sequence: SLVHLAQK, peptide start residue: 507)", "log2 fold change": 0.359}
{"target": "SERBP1 (peptide sequence: PGHLQEGFGCVVTNR, peptide start residue: 2) (UniProt Q8NC51)", "log2 fold change": 0.0823}
{"target": "NUP93 (peptide sequence: CHAVHVALVLFELK, peptide start residue: 487) (UniProt Q8N1F7)", "log2 fold change": 0.174}
{"target": "ANKRD13C (peptide sequence: GGNIMEQNFEPIRR, peptide start residue: 396) (UniProt Q8N6S4)", "log2 fold change": 0.324}
{"target": "TMEM87A (peptide sequence: MITHFER, peptide start residue: 545) (UniProt Q8NBN3)", "log2 fold change": -0.0479}
{"target": "ZGPAT (peptide sequence: LFQTEEKIER, peptide start residue: 459) (UniProt Q8N5A5)", "log2 fold change": -0.503}
{"target": "IQUB (peptide sequence: QYAMQRPNDDSLAFLDKIK, peptide start residue: 98) (UniProt Q8NA54)", "log2 fold change": -0.0669}
{"target": "UniProt Q8N9W5 (peptide sequence: QEQLQGFNTR, peptide start residue: 420)", "log2 fold change": 0.45}
{"target": "ZNF687 (peptide sequence: KAVVLPGGTATSPK, peptide start residue: 422) (UniProt Q8N1G0)", "log2 fold change": 0.205}
{"target": "UniProt Q8NHY6 (peptide sequence: VMLENYR, peptide start residue: 63)", "log2 fold change": 0.0595}
{"target": "NGDN (peptide sequence: VQAGAYPTEK, peptide start residue: 39) (UniProt Q8NEJ9)", "log2 fold change": -0.279}
{"target": "PPHLN1 (peptide sequence: YYSHVDYR, peptide start residue: 52) (UniProt Q8NEY8)", "log2 fold change": -0.388}
{"target": "UniProt Q8NB25 (peptide sequence: LQNELDLTK, peptide start residue: 583)", "log2 fold change": 0.0424}
{"target": "ZNF740 (peptide sequence: NFVCEHCFGAFR, peptide start residue: 100) (UniProt Q8NDX6)", "log2 fold change": 0.213}
{"target": "ZC3H8 (peptide sequence: IKLECEQIPKK, peptide start residue: 42) (UniProt Q8N5P1)", "log2 fold change": -0.701}
